Test results: PubChem BioAssay AID2551 (National Center for Advancing Translational Sciences (NCATS), 2010)
The whole screen tested about 310,000 compounds, of which about 17,000 (5.5%) were called active. Inconclusive results, whose numbers are uncertain, are shown with a selection of clear calls. Calls come from the whole dose curve; as a rule, active = well fitted inhibition curve with a large enough effect; inconclusive = small, poorly fitted or top-dose-only effect, or effect the other way; inactive = no such curve, though single readings can be large or run the other way. Where the call is inconclusive, the potency comes from a doubtful curve fit.

Chains of the proteins cited; added tags and fusions are not shown. Lines headed by an entry give the natural chain unless they say otherwise; changes in a name come on top.
UniProt P51450: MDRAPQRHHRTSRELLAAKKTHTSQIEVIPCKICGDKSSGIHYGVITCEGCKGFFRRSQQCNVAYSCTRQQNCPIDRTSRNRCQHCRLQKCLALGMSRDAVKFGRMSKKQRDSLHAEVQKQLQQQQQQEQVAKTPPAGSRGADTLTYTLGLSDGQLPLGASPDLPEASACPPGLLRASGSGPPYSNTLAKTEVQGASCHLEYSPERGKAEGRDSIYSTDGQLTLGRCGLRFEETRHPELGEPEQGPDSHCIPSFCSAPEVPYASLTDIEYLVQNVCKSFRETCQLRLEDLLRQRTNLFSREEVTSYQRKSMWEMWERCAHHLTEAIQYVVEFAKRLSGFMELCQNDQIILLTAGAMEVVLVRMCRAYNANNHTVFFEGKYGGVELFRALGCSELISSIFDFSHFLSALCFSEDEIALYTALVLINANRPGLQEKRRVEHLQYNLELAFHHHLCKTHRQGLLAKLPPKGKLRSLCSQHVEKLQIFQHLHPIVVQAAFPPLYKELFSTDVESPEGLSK

The molecules below were run against Nuclear receptor ROR-gamma (Mus musculus) (UniProt P51450) (assay: qHTS for inhibitors of ROR gamma transcriptional activity). Conditions: Drosophila S2 Gal4-RORgamma UAS-luciferase reporter, 20 h; series mostly up to 53.6 µM.
Method in brief: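 Luminescence from a UAS-regulated Photinus luciferase reporter in stably transfected Drosophila Schneider cells is measured; decreased signal marks ROR gamma inhibition. Fusion expression is induced by 700 uM copper sulfate for 20 hr.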
Note: nearly all actives have a fitted effect of over 60% in size.
Potency is the fitted concentration of half-maximal effect.

| SMILES | Potency |
| --- | --- |
| COc1cc2c(cc1OC)CN(c1ccc([N+](=O)[O-])cc1C#N)CC2 | inactive |
| Cc1ccccc1/C=C\c1nc(O)c([N+](=O)[O-])c(=O)[nH]1 | inactive |
| Cc1nc2ccccn2c1C(=O)/C=C/c1cccc([N+](=O)[O-])c1 | inactive |
| COc1ccc(Br)cc1C1CC(=O)N2CN(Cc3ccccc3)CSC2=C1C#N (stereo not drawn) | inconclusive: 15.8 µM [inhibitor, single point] |
| CCN(Cc1ccncc1)C(=O)c1ccccc1NS(=O)(=O)c1ccc(Br)cc1 | inconclusive: 17.8 µM [activator, single point] |
| CCCn1c(=O)c(-c2nc3ccccc3[nH]2)c(O)c2ccccc21 | active: 0.501 µM |
| O=C(c1ccccc1)c1c[nH]c(C(=O)NNc2ccccc2)c1 | inconclusive: 10 µM [activator, partial curve, poor fit] |
| COc1ccc(/C=N/NS(=O)(=O)c2ccccc2)cc1OC | inconclusive: 35.5 µM [activator, single point] |
| CCCCCOc1ccc(NC(=O)CSc2cccc3cccnc23)cc1 | inconclusive: 35.5 µM [inhibitor, single point] |
| O=C(NCC(c1cccs1)N1CCOCC1)c1ccc(Cl)s1 (stereo not drawn) | inconclusive: 35.5 µM [activator, single point] |
| CN(C)S(=O)(=O)N1CCC(Oc2cccc(C(=O)NCCCC3CCCC3)c2)CC1 | inconclusive: 35.5 µM [inhibitor, single point] |
| O=C(Nc1nc2ccccc2n1Cc1ccccc1)c1ccc(COc2ccccc2[N+](=O)[O-])o1 | inconclusive: 35.5 µM [inhibitor, partial curve, poor fit] |
| CCN(CC)CCNC(=O)c1ccc(Cl)c(S(=O)(=O)Nc2ccc(Cl)cc2)c1 | inconclusive: 0.316 µM [inhibitor, partial curve, poor fit] |
| Cc1cc(C)c2c(c1)/C(=N/NS(=O)(=O)c1ccccc1)CCC2 | inconclusive: 0.112 µM [activator, full curve, poor fit] |
| Cc1c(N)cccc1-c1nc2ccccc2[nH]1 | active: 11.2 µM |
| CC(C)(C)c1cc(NCCCn2ccnc2)n2ncc(-c3ccc(Cl)cc3)c2n1 | inconclusive: 14.1 µM [inhibitor, single point] |
| CSc1nc(=S)n(-c2ccc([N+](=O)[O-])cc2)c(C)c1C(C)=O | inactive |
| CC(=O)N1c2ccc(S(=O)(=O)N3CCCCC3)cc2CC1C(=O)Nc1ccc(C)cc1 (stereo not drawn) | inactive |
| COc1ccc(N(C)C(=O)c2cc3c(s2)-c2ccc(Cl)cc2S(=O)(=O)C3)c(OC)c1 | inactive |
| Cc1cccc(N=c2oc3cc(O)ccc3cc2C(N)=O)c1 | active: 11.2 µM |
| CC1(C(=O)O)Sc2[nH]c(=O)sc2C2c3ccccc3OC(=O)C21 (stereo not drawn) | inconclusive: 28.2 µM [activator, single point] |
| CCCc1nc(SCC(=O)N2CCCc3ccccc32)c2c(=O)n(C)c(=O)n(C)c2n1 | inconclusive: 2.82 µM [inhibitor, partial curve, poor fit] |
| O=C(Nc1nnc(-c2cccs2)s1)C1CC1 | inconclusive: 12.6 µM [activator, partial curve] |
| S=c1[nH]nc(-c2ccccn2)n1/N=C/c1ccc(Cl)cc1 | active: 12.6 µM |
| CC(=O)NC(CC(=O)Oc1ccc(C)cc1Br)c1ccccc1 (stereo not drawn) | inactive |

| SMILES | Potency |
| --- | --- |
| CSc1cccc(NC(=S)Nc2ccc(F)cc2)c1 | inconclusive: 11.2 µM [inhibitor, single point] |
| COC(=O)c1ccc(COc2cccc(OC)c2)o1 | inconclusive: 17.8 µM [activator, single point] |
| NC(=O)CC(NC(=O)Cc1ccc(Br)cc1)c1ccc(NC2CCC2)c([N+](=O)[O-])c1 (stereo not drawn) | inconclusive: 17.8 µM [activator, single point] |
| COc1ccccc1N1CCN(/N=C/c2ccc([N+](=O)[O-])cc2)CC1 | inconclusive: 15.8 µM [activator, single point] |
| O=C(CSc1nc(C2CC2)nc2ccccc12)Nc1ccccc1N1CCOCC1 | inconclusive: 7.08 µM [inhibitor, full curve, poor fit] |
| Cc1ccc(C)c2sc(NC(=O)c3ccc(N4C(=O)CCC4=O)cc3)nc12 | active: 0.199 µM |
| Cc1cc(C)cc(NC(=S)N2CCN(c3ccc(F)cc3)CC2)c1 | active: 7.08 µM |
| CC1(C)CNC(=O)c2sc(N3CCOCC3)nc2C1 | inactive |
| O=C(NC(=S)Nc1ccc(O)cc1)c1ccccc1Cl | inactive |
| CC(C)C[C@H](NC(=O)c1nc[nH]c1C(=O)NCC(=O)OC(C)(C)C)C(=O)OCc1ccccc1 | active: 3.98 µM |
| COc1ccc(NC(=S)Nc2ccc(F)cc2)cc1 | inconclusive: 14.1 µM [inhibitor, single point] |
| COCCCn1c(=O)/c(=C\c2ccccc2OC(F)F)s/c1=C(/C#N)C(N)=O | inconclusive: 3.55 µM [inhibitor, single point] |
| O=C1CN(C(=O)/C=C/c2cc(Br)ccc2F)CCN1 | inactive |
| CCCCNC(=O)NS(=O)(=O)c1ccc(N)cc1 | inactive |
| Cc1ccsc1/C=C1/C(=O)NN(c2ccccc2)C1=O | inconclusive: 14.1 µM [inhibitor, partial curve] |
| CCOc1ccc(-c2[nH]ncc2Oc2ccccc2OC)c(O)c1 | active: 15.8 µM |
| CCc1ccc(-c2cc(C(F)(F)F)n3nc(C(=O)Nc4cnn(Cc5ccc(C)cc5)c4)cc3n2)s1 | inconclusive: 5.62 µM [inhibitor, single point] |
| Cc1ccsc1/C=N/NC(=O)c1cccs1 | active: 10 µM |
| Cc1cnc(NC(=O)c2ccc(-c3nc4ccccc4s3)o2)s1 | inconclusive: 25.1 µM [inhibitor, single point] |
| COc1ccc(NC(=O)CCCn2c(=O)c3sccc3n(Cc3ccc(C)cc3)c2=O)cc1 | inconclusive: 10 µM [activator, partial curve] |
| NNC(=O)c1nnn(-c2nonc2N)c1CN1CCc2ccccc2C1 | inactive |
| Cc1nc2[nH]onc2c2nccc(=O)c12 | inconclusive: 12.6 µM [inhibitor, partial curve] |
| COc1ccc(OCC(=O)NNc2nc3ccccc3s2)cc1 | inconclusive: 12.6 µM [inhibitor, single point] |
| O=C(N/N=C1\CCCc2ccccc21)c1cccc([N+](=O)[O-])c1 | inconclusive: 35.5 µM [inhibitor, single point] |
| CCn1c(SCc2nc(-c3ccc(Cl)cc3)no2)nnc1-c1ccco1 | inconclusive: 14.1 µM [activator, partial curve] |

Structural class, the entries above with a cyano group.

| SMILES | Potency |
| --- | --- |
| COc1cc2c(cc1OC)CN(c1ccc([N+](=O)[O-])cc1C#N)CC2 | inactive |
| COc1ccc(Br)cc1C1CC(=O)N2CN(Cc3ccccc3)CSC2=C1C#N (stereo not drawn) | inconclusive: 15.8 µM [inhibitor, single point] |
| COCCCn1c(=O)/c(=C\c2ccccc2OC(F)F)s/c1=C(/C#N)C(N)=O | inconclusive: 3.55 µM [inhibitor, single point] |

Remaining list, next part:

| SMILES | Potency |
| --- | --- |
| Fc1ccc(NC(=S)NCc2ccc3c(c2)OCO3)cc1 | active: 11.2 µM |
| CCn1c(=O)cc(SCC(=O)NCc2ccc(C)o2)c2ccccc21 | inactive |
| COc1ccc(Cc2nnc(-c3ccc(F)cc3)o2)cc1OC | inconclusive: 12.6 µM [activator, single point] |
| Cc1ccc(C2=NN=C(NC(=O)C(F)(F)F)SC2)cc1 | inconclusive: 35.5 µM [inhibitor, single point] |
| Cc1ccc(C(c2nnnn2C2CCCC2)N2c3ccccc3CC2C)cc1 (stereo not drawn) | inconclusive: 2.24 µM [inhibitor, partial curve] |
| Cc1cc(C)cc(OCC(=O)N2N=C(C(F)(F)F)CC2(O)C(C)(C)C)c1 (stereo not drawn) | inconclusive: 0.708 µM [activator, single point] |
| COc1cc(/C=N/NC(=O)C2=NNC(=O)C2C)ccc1O (stereo not drawn) | inactive |
| Cc1cccc(NC(=S)NC(=O)c2ccc(Br)o2)c1C | active: 3.55 µM |
| Cc1cc(-c2c(C)[nH]n(-c3ccc(Cl)cc3)c2=O)n(-c2ccc(Cl)cc2)n1 | inconclusive: 1.26 µM [activator, partial curve] |
| COc1ccc(S(=O)(=O)N(C)c2ccc(C(=O)N3CCCCC3)cc2)cc1 | inconclusive: 17.8 µM [activator, single point] |
| O=c1cc(-c2ccccc2)[nH]n1-c1nc2ccccc2s1 | active: 8.91 µM |
| COC(=O)c1cnn(-c2ccccc2)c1/C=N/NC(=S)Nc1ccccc1 | active: 0.891 µM |
| O=C(/C=C/c1ccccc1)Nn1cnc2ccccc2c1=O | inconclusive: 7.94 µM [activator, partial curve] |
| COCCCNc1ncnc2nc[nH]c12 | inconclusive: 0.141 µM [inhibitor, full curve, poor fit] |
| CC(=O)NNC(=S)Nc1cc(S(=O)(=O)N(C)C)ccc1C | inactive |
| CCCCCCc1c(O)c2ccccc2[nH]c1=O | inconclusive: 31.6 µM [activator, single point] |
| CCOC(=O)NC(=O)COC(=O)CCCSc1nc2ccccc2s1 | active: 7.08 µM |
| O=C(COC(=O)c1ccco1)Nc1ccccc1[N+](=O)[O-] | inconclusive: 4.47 µM [activator, single point] |
| Cc1ccccc1-c1cc(C(=O)Nc2sc(C(=O)OC(C)C)c(C)c2C#N)c2ccccc2n1 | inconclusive: 28.2 µM [inhibitor, single point] |
| Cn1c(N=Nc2ccc(N3CCOCC3)cc2)[n+](C)c2ccccc21 | inactive |
| COC(=O)COc1c(Cl)cc(Cl)c2ccc(C)nc12 | inconclusive: 10 µM [inhibitor, partial curve, poor fit] |
| CC1CCN(c2ccc(S(=O)(=O)Nc3cc(C(=O)O)cc(C(=O)O)c3)cc2[N+](=O)[O-])CC1 | inconclusive: 17.8 µM [activator, single point] |
| O=C(NCCc1ccccc1)c1ccc2c(c1)OCCO2 | active: 1.41 µM |
